The list shows a part of the results.

Chains of the proteins cited; added tags and fusions are not shown. Lines headed by an entry give the natural chain unless they say otherwise; changes in a name come on top.
UniProt Q9H0U9: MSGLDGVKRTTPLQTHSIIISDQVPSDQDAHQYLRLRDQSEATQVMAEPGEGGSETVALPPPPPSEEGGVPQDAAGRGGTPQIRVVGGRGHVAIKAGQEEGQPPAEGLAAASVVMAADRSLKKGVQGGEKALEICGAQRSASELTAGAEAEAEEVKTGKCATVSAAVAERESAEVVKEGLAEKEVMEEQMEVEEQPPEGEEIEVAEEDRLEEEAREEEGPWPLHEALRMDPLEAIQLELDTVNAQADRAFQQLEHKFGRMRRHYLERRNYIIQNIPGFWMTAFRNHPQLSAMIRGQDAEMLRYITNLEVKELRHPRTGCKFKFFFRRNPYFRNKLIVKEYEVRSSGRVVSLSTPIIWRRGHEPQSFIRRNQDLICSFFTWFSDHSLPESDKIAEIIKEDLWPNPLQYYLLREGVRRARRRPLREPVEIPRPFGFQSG
UniProt Q9Y4A5, whole entry, looked up: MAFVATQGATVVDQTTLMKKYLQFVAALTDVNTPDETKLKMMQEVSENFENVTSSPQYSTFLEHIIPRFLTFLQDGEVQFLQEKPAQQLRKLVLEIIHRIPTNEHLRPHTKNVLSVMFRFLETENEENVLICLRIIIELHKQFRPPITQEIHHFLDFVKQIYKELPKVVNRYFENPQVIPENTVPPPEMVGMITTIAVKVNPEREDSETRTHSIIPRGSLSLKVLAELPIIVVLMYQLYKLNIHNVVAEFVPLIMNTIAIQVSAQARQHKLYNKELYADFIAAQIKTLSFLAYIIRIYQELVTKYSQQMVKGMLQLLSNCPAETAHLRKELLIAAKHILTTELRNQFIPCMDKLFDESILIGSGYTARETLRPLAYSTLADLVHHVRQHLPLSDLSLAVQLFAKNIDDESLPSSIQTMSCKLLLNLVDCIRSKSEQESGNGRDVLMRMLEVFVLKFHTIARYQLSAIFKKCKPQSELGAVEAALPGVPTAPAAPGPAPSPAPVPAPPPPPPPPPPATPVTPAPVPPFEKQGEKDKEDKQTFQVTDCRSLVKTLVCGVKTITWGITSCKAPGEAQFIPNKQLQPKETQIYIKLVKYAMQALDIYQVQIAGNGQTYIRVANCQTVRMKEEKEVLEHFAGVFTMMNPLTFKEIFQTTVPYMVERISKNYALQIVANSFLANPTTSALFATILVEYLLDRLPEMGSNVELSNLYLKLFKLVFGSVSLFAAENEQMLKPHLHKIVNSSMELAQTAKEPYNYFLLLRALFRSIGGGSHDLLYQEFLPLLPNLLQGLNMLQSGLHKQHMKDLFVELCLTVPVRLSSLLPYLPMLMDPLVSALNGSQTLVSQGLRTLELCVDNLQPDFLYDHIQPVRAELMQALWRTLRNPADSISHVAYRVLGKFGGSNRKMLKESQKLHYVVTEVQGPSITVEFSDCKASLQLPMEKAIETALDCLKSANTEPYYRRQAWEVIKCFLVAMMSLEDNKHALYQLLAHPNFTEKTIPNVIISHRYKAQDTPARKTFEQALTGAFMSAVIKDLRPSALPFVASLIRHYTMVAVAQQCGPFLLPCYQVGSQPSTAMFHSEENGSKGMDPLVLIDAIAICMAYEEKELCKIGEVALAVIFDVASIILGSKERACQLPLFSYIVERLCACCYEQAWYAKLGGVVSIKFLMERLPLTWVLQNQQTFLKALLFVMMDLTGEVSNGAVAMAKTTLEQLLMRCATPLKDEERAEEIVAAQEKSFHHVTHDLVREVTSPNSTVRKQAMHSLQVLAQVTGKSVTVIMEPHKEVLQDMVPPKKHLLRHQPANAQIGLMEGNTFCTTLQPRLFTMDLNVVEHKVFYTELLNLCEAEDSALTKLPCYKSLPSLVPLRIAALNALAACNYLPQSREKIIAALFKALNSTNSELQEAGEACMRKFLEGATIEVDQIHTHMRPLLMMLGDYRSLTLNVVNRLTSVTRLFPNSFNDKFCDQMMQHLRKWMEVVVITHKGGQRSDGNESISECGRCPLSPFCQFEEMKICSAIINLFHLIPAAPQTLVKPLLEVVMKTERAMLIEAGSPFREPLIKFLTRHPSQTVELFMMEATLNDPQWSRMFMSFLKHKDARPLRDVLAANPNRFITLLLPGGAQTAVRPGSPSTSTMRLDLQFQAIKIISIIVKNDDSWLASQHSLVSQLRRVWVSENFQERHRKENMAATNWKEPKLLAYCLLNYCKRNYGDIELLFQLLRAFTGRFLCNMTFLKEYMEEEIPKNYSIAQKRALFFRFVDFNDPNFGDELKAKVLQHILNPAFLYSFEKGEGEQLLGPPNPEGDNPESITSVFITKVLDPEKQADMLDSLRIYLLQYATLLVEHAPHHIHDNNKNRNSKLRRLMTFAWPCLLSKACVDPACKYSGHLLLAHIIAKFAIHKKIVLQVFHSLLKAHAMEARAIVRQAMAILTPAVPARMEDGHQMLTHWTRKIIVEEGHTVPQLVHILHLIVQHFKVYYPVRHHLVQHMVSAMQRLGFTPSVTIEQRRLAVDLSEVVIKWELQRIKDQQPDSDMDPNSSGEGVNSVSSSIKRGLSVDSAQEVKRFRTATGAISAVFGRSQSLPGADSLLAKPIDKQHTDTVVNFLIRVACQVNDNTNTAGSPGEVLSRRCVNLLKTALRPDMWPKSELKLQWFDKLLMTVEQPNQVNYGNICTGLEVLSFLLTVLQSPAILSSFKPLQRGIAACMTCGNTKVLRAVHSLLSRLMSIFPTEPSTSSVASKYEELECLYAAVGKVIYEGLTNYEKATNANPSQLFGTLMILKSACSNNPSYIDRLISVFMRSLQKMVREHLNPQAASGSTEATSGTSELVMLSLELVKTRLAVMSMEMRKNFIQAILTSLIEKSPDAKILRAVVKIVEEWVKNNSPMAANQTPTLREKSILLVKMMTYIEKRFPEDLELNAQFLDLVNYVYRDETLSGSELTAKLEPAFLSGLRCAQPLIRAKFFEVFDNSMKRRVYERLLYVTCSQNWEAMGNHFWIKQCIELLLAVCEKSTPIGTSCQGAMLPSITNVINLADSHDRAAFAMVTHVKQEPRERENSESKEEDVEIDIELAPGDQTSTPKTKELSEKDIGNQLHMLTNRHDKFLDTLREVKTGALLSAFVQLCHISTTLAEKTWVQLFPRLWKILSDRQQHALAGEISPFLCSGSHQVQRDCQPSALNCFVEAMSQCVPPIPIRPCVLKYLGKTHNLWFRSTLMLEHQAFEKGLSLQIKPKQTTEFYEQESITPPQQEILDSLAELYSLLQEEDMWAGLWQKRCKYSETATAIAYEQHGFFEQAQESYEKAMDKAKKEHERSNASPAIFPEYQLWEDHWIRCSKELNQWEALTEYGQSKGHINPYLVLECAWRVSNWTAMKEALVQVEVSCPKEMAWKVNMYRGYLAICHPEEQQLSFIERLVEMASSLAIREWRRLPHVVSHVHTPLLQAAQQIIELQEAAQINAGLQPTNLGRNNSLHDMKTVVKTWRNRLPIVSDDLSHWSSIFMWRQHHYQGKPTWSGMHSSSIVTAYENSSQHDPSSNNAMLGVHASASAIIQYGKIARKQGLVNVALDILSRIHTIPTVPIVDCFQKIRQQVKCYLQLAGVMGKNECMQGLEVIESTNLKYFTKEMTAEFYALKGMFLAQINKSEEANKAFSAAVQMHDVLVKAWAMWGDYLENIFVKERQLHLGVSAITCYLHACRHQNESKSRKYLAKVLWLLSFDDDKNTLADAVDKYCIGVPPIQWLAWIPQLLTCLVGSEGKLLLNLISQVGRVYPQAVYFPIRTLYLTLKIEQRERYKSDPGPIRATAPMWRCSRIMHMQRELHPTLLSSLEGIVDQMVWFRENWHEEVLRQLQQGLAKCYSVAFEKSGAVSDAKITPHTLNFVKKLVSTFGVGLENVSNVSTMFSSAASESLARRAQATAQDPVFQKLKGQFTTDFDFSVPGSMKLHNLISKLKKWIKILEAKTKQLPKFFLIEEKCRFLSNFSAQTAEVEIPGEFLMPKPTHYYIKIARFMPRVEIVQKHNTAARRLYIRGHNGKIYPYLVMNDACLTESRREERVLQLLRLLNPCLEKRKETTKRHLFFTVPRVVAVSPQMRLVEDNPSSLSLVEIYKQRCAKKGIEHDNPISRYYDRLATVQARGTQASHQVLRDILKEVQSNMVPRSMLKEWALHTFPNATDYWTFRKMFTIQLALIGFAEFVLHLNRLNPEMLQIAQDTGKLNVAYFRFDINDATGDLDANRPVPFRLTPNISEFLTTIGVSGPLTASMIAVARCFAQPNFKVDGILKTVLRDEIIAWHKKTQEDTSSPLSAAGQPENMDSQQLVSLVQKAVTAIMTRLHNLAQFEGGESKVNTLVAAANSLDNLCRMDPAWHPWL
UniProt Q96Q11: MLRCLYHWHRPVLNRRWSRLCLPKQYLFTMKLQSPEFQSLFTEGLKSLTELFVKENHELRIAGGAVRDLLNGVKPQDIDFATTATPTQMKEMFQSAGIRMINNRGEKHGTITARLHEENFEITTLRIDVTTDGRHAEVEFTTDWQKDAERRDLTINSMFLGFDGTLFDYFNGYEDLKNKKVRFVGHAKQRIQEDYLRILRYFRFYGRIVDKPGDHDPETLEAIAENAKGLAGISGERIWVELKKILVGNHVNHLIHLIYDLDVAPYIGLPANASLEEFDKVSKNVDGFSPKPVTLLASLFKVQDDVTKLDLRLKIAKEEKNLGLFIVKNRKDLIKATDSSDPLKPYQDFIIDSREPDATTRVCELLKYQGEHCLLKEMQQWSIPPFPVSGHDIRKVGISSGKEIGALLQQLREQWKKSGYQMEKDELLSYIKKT
UniProt Q15642: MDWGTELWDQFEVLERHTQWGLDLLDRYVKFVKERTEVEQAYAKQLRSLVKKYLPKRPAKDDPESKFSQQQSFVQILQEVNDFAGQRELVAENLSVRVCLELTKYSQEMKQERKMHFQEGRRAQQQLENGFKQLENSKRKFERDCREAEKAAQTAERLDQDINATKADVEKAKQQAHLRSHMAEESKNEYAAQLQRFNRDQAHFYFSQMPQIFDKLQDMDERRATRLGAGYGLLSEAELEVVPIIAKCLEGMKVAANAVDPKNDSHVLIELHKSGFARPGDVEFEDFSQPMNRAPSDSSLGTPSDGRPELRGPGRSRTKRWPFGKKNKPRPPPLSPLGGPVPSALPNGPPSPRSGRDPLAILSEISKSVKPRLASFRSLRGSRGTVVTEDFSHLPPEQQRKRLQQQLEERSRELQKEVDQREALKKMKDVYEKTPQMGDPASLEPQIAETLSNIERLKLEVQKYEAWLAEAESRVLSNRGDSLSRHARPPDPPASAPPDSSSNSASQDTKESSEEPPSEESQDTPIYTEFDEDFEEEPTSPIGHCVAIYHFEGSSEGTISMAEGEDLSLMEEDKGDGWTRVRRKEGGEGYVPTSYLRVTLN
UniProt O75157: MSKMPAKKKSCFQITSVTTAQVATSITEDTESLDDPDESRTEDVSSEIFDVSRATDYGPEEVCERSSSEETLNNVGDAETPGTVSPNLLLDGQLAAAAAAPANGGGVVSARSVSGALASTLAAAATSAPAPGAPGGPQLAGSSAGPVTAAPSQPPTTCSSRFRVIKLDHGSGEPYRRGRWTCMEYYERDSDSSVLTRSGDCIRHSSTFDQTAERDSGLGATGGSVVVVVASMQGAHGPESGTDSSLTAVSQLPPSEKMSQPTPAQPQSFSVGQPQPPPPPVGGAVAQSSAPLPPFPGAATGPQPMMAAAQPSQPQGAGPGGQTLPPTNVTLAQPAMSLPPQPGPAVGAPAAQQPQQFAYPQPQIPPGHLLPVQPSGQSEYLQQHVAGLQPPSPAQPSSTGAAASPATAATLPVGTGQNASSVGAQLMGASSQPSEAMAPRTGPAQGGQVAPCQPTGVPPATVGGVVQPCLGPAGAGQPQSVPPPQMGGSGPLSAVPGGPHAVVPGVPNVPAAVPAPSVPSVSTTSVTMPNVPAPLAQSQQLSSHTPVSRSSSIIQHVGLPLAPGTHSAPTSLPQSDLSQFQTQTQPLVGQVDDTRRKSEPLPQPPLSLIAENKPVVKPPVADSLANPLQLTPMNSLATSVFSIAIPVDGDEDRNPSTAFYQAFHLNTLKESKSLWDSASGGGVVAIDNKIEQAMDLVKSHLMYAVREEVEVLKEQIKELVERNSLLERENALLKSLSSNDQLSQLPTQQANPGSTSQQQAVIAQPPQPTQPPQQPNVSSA
UniProt Q86TN4: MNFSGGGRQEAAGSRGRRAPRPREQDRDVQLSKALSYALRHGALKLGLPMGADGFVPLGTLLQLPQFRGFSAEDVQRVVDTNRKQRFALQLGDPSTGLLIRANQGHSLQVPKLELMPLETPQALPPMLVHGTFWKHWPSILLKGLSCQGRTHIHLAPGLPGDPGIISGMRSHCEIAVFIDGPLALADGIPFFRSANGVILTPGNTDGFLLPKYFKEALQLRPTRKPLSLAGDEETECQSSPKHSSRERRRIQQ
UniProt Q5BVD1: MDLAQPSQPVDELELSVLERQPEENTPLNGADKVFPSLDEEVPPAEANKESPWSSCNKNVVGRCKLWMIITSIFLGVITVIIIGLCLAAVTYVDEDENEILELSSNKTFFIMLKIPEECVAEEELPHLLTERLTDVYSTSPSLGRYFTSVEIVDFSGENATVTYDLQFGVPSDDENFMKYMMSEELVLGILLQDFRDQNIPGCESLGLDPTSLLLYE

Compound in the assay: CN1CC[C@H](c2c(O)cc(O)c3c(=O)cc(-c4ccccc4Cl)oc23)[C@H](O)C1 [alvocidib]
Description: log2 fold change, soluble protein after heating vs DMSO (PISA); higher = thermal stabilisation; K562 lysate, 10 uM; active = over 0.2 and 3.5 SD of the protein, either way, in both replicates (recomputed). The essentials:
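Soluble protein was defined as the supernatant remaining after 21,000xg for 90 min, following pooling of heated aliquots and adjustment to 0.5% NP-40 at 4°C. Before that, crude K562 extract at 1 mg/mL protein in PBS pH 7.4 with 1 mM MgCl2 was treated with 10 μM compound for 30 min and heated for 3 min across 48°C-58°C. Quantification used TMTpro 16plex LC-MS/MS with channel sums equalised, and values are log-two fold changes in thermal stability relative to solvent controls from duplicates.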
In the case of TRMT2B (UniProt Q96GJ1), the log2 fold change was inactive: -0.057. Next, TSC1 (UniProt Q92574): inactive: -0.034; TTC26: inactive: 0.005. As for TTLL12 (UniProt V9GY16), the log2 fold change was inactive: 0.003.

Consider TRAF3IP2 (UniProt O43734), for which the log2 fold change is inactive: 0.001. In the case of TSPYL2 (UniProt Q9H2G4) it was inactive: 0.04; in that of TRIM58 (UniProt Q8NG06), inactive: 0.051; in that of TSPYL1 (UniProt Q9H0U9), inactive: 0.17. Next, TRRAP (UniProt Q9Y4A5): inactive: 0.003; TRPM4 (UniProt Q8TD43): inactive: -0.401. In the case of TRPS1 isoform 2 (UniProt Q9UHF7) it was inactive: -0.224; in that of TRNT1 (UniProt Q96Q11), inactive: 0.023; in that of TRIP10 (UniProt Q15642), inactive: -0.012. For the target TRIAP1 (UniProt O43715), the log2 fold change was inactive: 0.207. Consider TSC22D2 (UniProt O75157), for which the log2 fold change is inactive: -0.011. With TRIM47 (UniProt Q96LD4), the log2 fold change is inactive: 0.022.

In the case of TRPT1 isoform 4 (UniProt Q86TN4), the log2 fold change was inactive: -0.06. Next, TRIP10 isoform 2 (UniProt Q15642): inactive: -0.148; TSEN15, A0A2U3TZM3: inactive: -0.115; TTMP isoform 3 (UniProt Q5BVD1): inactive: -0.347. As for TRUB2 (UniProt O95900), the log2 fold change is inactive: 0.038. Next, TRAF3 (UniProt Q13114): inactive: -0.01; TRIM65 (UniProt Q6PJ69): inactive: -0.11.

For the origin of these results see the supplement of paper PMC10849652.
